# Taken from: PubChem BioAssay AID1224830 (NIAID, 2016)
# Aim: 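Genes whose knock-down alters the TNF-alpha reporter response to LPS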 (primary screen)
# Cell system: human THP-1 monocytic leukaemia cells, TNF dual-luciferase reporter clone, PMA-differentiated to macrophage-like cells
# Reagents: siRNA pool against human genes, 50 nM
# Time to read-out: LPS for 4 h, given about 3 days after siRNA transfection
# Conditions: bacterial LPS (TLR4 ligand), 10 ng/ml
# Measured: 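TNF firefly reporter luminescence divided by renilla, normalised to the plate median, then turned into a robust z-score for each replicate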
# Scale: TNF reporter robust z-score: higher = stronger TNF reporter response to LPS
# Rule for the call: 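a well is active when its z-score exceeds 2.8 or falls below -1.5; control wells carry no call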
# In all, the deposit lists about 18,000 reagents; below is a part drawn at random. About 2,900 of them (16%) count as active. 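Calls are made per well; low scores hint the gene aids the LPS response, high scores that it dampens it.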 Repeated entries: four replicate wells of each siRNA pool.
gene symbol,TNF reporter robust z-score,call
LINGO4 (leucine rich repeat and Ig domain containing 4),0.59,inactive
LINGO4 (leucine rich repeat and Ig domain containing 4),2.06,inactive
LINGO4 (leucine rich repeat and Ig domain containing 4),-0.64,inactive
LINGO4 (leucine rich repeat and Ig domain containing 4),-0.09,inactive
TFF1 (trefoil factor 1),-0.54,inactive
TFF1 (trefoil factor 1),3.41,active
TFF1 (trefoil factor 1),-0.17,inactive
TFF1 (trefoil factor 1),1.61,inactive
DGKG (diacylglycerol kinase gamma),-0.59,inactive
DGKG (diacylglycerol kinase gamma),-0.16,inactive
DGKG (diacylglycerol kinase gamma),-0.2,inactive
DGKG (diacylglycerol kinase gamma),-0.29,inactive
UBE2J1 (ubiquitin conjugating enzyme E2 J1),-0.47,inactive
UBE2J1 (ubiquitin conjugating enzyme E2 J1),-1.15,inactive
UBE2J1 (ubiquitin conjugating enzyme E2 J1),-0.18,inactive
UBE2J1 (ubiquitin conjugating enzyme E2 J1),0.52,inactive
RASSF4 (Ras association domain family member 4),-0.89,inactive
RASSF4 (Ras association domain family member 4),0.55,inactive
RASSF4 (Ras association domain family member 4),0.03,inactive
RASSF4 (Ras association domain family member 4),0.62,inactive
ZDHHC22 (zDHHC palmitoyltransferase 22),-1.45,inactive
ZDHHC22 (zDHHC palmitoyltransferase 22),-1.17,inactive
ZDHHC22 (zDHHC palmitoyltransferase 22),-1.19,inactive
ZDHHC22 (zDHHC palmitoyltransferase 22),-1.3,inactive
BANK1 (B cell scaffold protein with ankyrin repeats 1),0.18,inactive
BANK1 (B cell scaffold protein with ankyrin repeats 1),-0.01,inactive
BANK1 (B cell scaffold protein with ankyrin repeats 1),-0.36,inactive
BANK1 (B cell scaffold protein with ankyrin repeats 1),0.66,inactive
KRTAP4-1 (keratin associated protein 4-1),1.1,inactive
KRTAP4-1 (keratin associated protein 4-1),2.22,inactive
KRTAP4-1 (keratin associated protein 4-1),-0.12,inactive
KRTAP4-1 (keratin associated protein 4-1),-0.2,inactive
BTBD16 (BTB domain containing 16),-0.44,inactive
BTBD16 (BTB domain containing 16),-0.27,inactive
BTBD16 (BTB domain containing 16),0.31,inactive
BTBD16 (BTB domain containing 16),-0.04,inactive
SCRN1 (secernin 1),0.14,inactive
SCRN1 (secernin 1),-1.17,inactive
SCRN1 (secernin 1),0.15,inactive
SCRN1 (secernin 1),0.31,inactive
ZBBX (zinc finger B-box domain containing),0.14,inactive
ZBBX (zinc finger B-box domain containing),0.35,inactive
ZBBX (zinc finger B-box domain containing),-1.26,inactive
ZBBX (zinc finger B-box domain containing),0.45,inactive
CLCN3 (Cl-/H+ antiporter 3),-1.59,active
CLCN3 (Cl-/H+ antiporter 3),0.46,inactive
CLCN3 (Cl-/H+ antiporter 3),-0.4,inactive
CLCN3 (Cl-/H+ antiporter 3),-0.01,inactive
